The whole screen tested about 31,000 sequences, of which about 1,400 (4.5%) were called active.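 How the source made its calls: active means median seed-adjusted z-score above 1 or below -1; inactive means the rest.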 The list shows a part of the results.

Results on 69 sequences are retold here after PubChem BioAssay AID1347426 (Functional Genomics Laboratory (NCATS/FGL), 2020).

The nature of the test: Novel Modifiers of Survival Motor Neuron (SMN) Protein: Gene Identification via Genome-wide siRNA Screen.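 Further: luminescence tracks full-length SMN protein made from the SMN2 reporter.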 The settings on record: HEK293T SMN2-luciferase reporter, siRNA knockdown, 72 h; actives lie on both sides. The essentials:
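siRNA screen, 10418 genes ×3 siRNAs; 1 pmol/well, lipid reverse transfection into HEK293T SMN2-luc reporter line. 72 h, 37 °C, 5% CO2; ONE-Glo readout. Data: neg-ctrl normalized, log10, MAD; hit = MAD >1.0 or < -1.0.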
CAAUGGGAAUGCACUCAUATT against CTSS: the median seed-adjusted z-score was inactive: 0.123.

In the case of CUCUCACCGAUGUCAAUGATT against CDH12, the median seed-adjusted z-score is inactive: -0.0663.

Take AGAGUUCAGUACUCAUUGATT against ZNF323: the median seed-adjusted z-score is inactive: -0.319.

With AGAAGAUUAACAUGAUAUCTT against SSX3, the median seed-adjusted z-score is inactive: 0.

Regarding GGAAUUCUUUGGGCUGAAATT against MMP1, the median seed-adjusted z-score was inactive: 0.205.

For the sequence GUCCUACGAUCCCAAUUAATT against CR1, the median seed-adjusted z-score was inactive: 0.143.

Turning to CCAAACAACUUCCAACUAATT against PNLIPRP2, the median seed-adjusted z-score was inactive: -0.022.

For GCAACCUUUGAUUACCUAUTT against FRRS1, the median seed-adjusted z-score was inactive: -0.4.

With ACCGAAACCUUCUACCUCATT against ARHGAP4, the median seed-adjusted z-score is inactive: 0.784.

For GUUCCAUCUUGAUCGAGUATT against RASSF9, the median seed-adjusted z-score was inactive: 0.314.

For the sequence AGCUCAUUGCGGAAUCCAATT against GPKOW, the median seed-adjusted z-score was inactive: -0.239.

As to GGGUCAUGUAGGUACAACATT against MAPKAP1, the median seed-adjusted z-score was inactive: -0.0499.

On to GACUCCAAAGUAGAAGUAATT against EIF4EBP2, for which the median seed-adjusted z-score is inactive: 0.517.

Consider CGAUGUAAGGGAUCAUUAUTT against CCNT2, for which the median seed-adjusted z-score was inactive: -0.836.

Regarding CGAGAUAAUGCAAUACCAATT against PRKRIR, the median seed-adjusted z-score was inactive: 0.

Consider GGCUUCAUUUUAUCCGGGATT against PLOD2, for which the median seed-adjusted z-score is inactive: -0.281.

On to CGGUGAUAGAUGUGAUUGATT against GALNTL2, for which the median seed-adjusted z-score was inactive: 0.164.

For AAGUGACCCUAAGAAGAUATT against ZNF117, the median seed-adjusted z-score is inactive: 0.616.

As for CAUUCGCAAAGGUAUCAUUTT against SLC20A2, the median seed-adjusted z-score is inactive: -0.0546.

On to CUGUUGGAUUGAUUCGAAATT against CTNNB1, for which the median seed-adjusted z-score is inactive: 0.0802.

As for GGGAUUCACUGUCAGCACATT against EDIL3, the median seed-adjusted z-score is inactive: 0.

In the case of GCAAAUCUAUUUUCGGAAATT against AGTPBP1, the median seed-adjusted z-score was inactive: -0.201.

GCUUUAAACCAGACCAAGATT against VSX2: the median seed-adjusted z-score is inactive: -0.333.

For the sequence CAGCUUCUGUGGUUAAGCATT against ADSL, the median seed-adjusted z-score was inactive: 0.

On to GAUCCAUACGAAUUGGAAATT against UPRT, for which the median seed-adjusted z-score was inactive: -0.441.

For the sequence CGGUUGUUAUGACAAUGGATT against FN1, the median seed-adjusted z-score is inactive: -0.312.

Consider GCUCAUCCCUUAUAUACCATT against ZNF611, for which the median seed-adjusted z-score was inactive: -0.0392.

Consider GCACUUCGCCUUCCAGGAUTT against DMPK, for which the median seed-adjusted z-score is inactive: -0.0417.

Take GCUGAAAGCGUGAUGGAGATT against DEAF1: the median seed-adjusted z-score is inactive: 0.0416.

Turning to CCAUCUAUUCAGAGACGUATT against MUTYH, the median seed-adjusted z-score was inactive: 0.024.

With GGUCAGUGGUUAUUGAUUUTT against SCO1, the median seed-adjusted z-score is inactive: -0.251.

Regarding GGUGUUACUUUGGAUCCUATT against C5, the median seed-adjusted z-score is inactive: 0.153.

Turning to GAGGCAAAAUAGUUGGAAATT against PPM1E, the median seed-adjusted z-score is inactive: -0.00802.

For CACUCAGACUAAAGAAAGATT against NMUR2, the median seed-adjusted z-score was inactive: 0.529.

Take CAGUGACCAUCGCAACCAGTT against CAPN10: the median seed-adjusted z-score is inactive: 0.364.

For the sequence GGAUAUUGGAUUGCCUAGATT against TCFL5, the median seed-adjusted z-score is active: 1.52.

Consider GGCAGUACAUGUACGAUGATT against AGXT2L2, for which the median seed-adjusted z-score was inactive: -0.0495.

Regarding CAGCCUAAGUAAAUACGAATT against TRPS1, the median seed-adjusted z-score was inactive: -0.125.

Turning to GCAAGAAUGUGACCUGCAATT against PVR, the median seed-adjusted z-score was inactive: -0.324.

For the sequence GUAUUGUGGUAGACAUGAATT against GNL3, the median seed-adjusted z-score was inactive: 0.572.

On to GCAUCAACGGCUUCUGCGATT against GGA1, for which the median seed-adjusted z-score was inactive: 0.172.

Take AGAGGAAUCAGACAACAGATT against CRNN: the median seed-adjusted z-score was inactive: -0.0758.

Turning to CCGUCAUGGUUGAUGGAGATT against SEMA4D, the median seed-adjusted z-score is inactive: 0.309.

GGAGAAUAUUGUAUAAGCUTT against SNRNP40: the median seed-adjusted z-score was inactive: 0.677.

GCAUGCUAAUUGGACUUUATT against PON1: the median seed-adjusted z-score is inactive: 0.

With GAUCAGUCAGUUUAUCCUATT against CHEK2, the median seed-adjusted z-score was inactive: 0.585.

Turning to GGAAAGGUCUAGAUCAGGATT against SEL1L2, the median seed-adjusted z-score is inactive: -0.342.

Take GCUUUUCCUGCUUACCCUATT against GPR172A: the median seed-adjusted z-score was inactive: 0.382.

For the sequence CAUUGAACCUGGUUACUAUTT against XPNPEP2, the median seed-adjusted z-score is inactive: -0.158.

Take UCUCUCUAUUGAUCUCCUATT against SLC22A11: the median seed-adjusted z-score is inactive: 0.

On to GGACAGUCUUCUGUAUGCATT against RBM39, for which the median seed-adjusted z-score is active: -1.82.

Consider ACAUGCACAGCAACAAUAATT against ZNF648, for which the median seed-adjusted z-score is inactive: -0.000686.

Regarding UCACACCAACAGUAACUUATT against ROBO1, the median seed-adjusted z-score is inactive: -0.096.

As to AGAUCAUUUUCCAUACGCUTT against ZFAND2A, the median seed-adjusted z-score was inactive: 0.

Consider GCCUCAUAGGGAUGACAAATT against SNX1, for which the median seed-adjusted z-score was inactive: 0.0261.

As to GGUCAUCAGGAUUGCCUAATT against TFRC, the median seed-adjusted z-score was inactive: 0.019.

For GAAAGUUCGUUUCUAUCGATT against DCLK1, the median seed-adjusted z-score is inactive: 0.193.

As for CGAGGUCACCAACCAGUUUTT against UCHL3, the median seed-adjusted z-score was inactive: 0.378.

As for CCUAAGUUACUACUAGUAUTT against ENPP4, the median seed-adjusted z-score was inactive: 0.

For CAAAGAGACGGAUCAAGAATT against TRIM38, the median seed-adjusted z-score was inactive: -0.375.

Consider CACAUAUAGAGGAACCUAUTT against ZNF396, for which the median seed-adjusted z-score was inactive: -0.247.

For GGAGCUACCUCACCACAAATT against ITIH5, the median seed-adjusted z-score was inactive: -0.289.

CCCUGUCCUUAGCACUCUATT against GFI1B: the median seed-adjusted z-score is inactive: 0.154.

Regarding GCCUUGUUAUCGCACAGCUTT against CLPP, the median seed-adjusted z-score was inactive: -0.118.

GGAUAGUAAUACUUAUGCATT against DNAH8: the median seed-adjusted z-score was inactive: 0.

On to CCUCAGGCAUGUCUUGUAATT against NUBP2, for which the median seed-adjusted z-score is inactive: -0.21.

For the sequence GCUGAGAAGUGCCUACUCATT against NANOS2, the median seed-adjusted z-score is inactive: 0.565.

In the case of GUACUUGGAUUGUACCCAUTT against SLC13A1, the median seed-adjusted z-score was inactive: 0.183.

AGGACUCGGAGAAACUGAATT against APOA4: the median seed-adjusted z-score was inactive: 0.195.
